The results in this text go back to US10183000B1, “2, 4-dinitroanilino-benzoic acid: novel insulinotropic agent for the treatment of diabetes” (priority 2017, dated 2019).

The data set is described as follows: Body weight of STZ-induced diabetic rats during eight weeks of treatment. It is filed as in vivo, Wistar rats. As to conditions: 100 mg/kg.

With `O=C(O)c1ccccc1Nc1ccc([N+](=O)[O-])cc1[N+](=O)[O-]` [Compound 1, 2,4-Dinitroanilino-benzoic acid], the “gain in body mass (in words)” value (eight weeks of intervention) is given as “no gain in body mass was observed”. Moreover, the Body weight (STZ-induced diabetic rats, eight weeks, mean ± SE, 06 rats, *P<0.05 vs diabetic group) is 160 ± 2.1* g.
